Experimental data published in article PMC6945068.
No constants are given. Whether binding was seen depends on the method and setting. In cells and extracts the contact can be indirect. Sequences can lack the tags named with a protein.

Molecular target: T1, MBP-fused Apc1-loop^500 wild type (residues 515-584 of Xenopus tropicalis Apc1) (Xenopus tropicalis) (UniProt Q08D52)
T1 sequence: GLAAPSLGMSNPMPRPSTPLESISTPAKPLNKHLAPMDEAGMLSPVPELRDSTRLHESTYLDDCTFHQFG
Experiment: pull-down; MBP-fused Apc1-loop^500 fragments on amylose beads; ^35S-labelled in vitro-translated PP2A B subunits in anaphase extract (interphase extract with cyclin B∆167), 23°C, 60 min; washes in XB^CSF with 0.01% NP-40; autoradiography; only the target purified

- binding: no binding
B1: ^35S-labelled in vitro-translated Flag-B55δ (X. laevis PP2A regulatory B subunit) (protein, UniProt Q7ZX64 1-447)
chain: MAGVGGGNDFQWCFSQVKGAIDEDVAEADIISTVEFNCSGELLATGDKGGRVVIFQREQENKSRPHSRGEYNVYSTFQSHEPEFDYLKSLEIEEKINKIRWLPQQNAANFLLSTNDKTIKLWKISERDKRVEGYNLKDDDGRLRDPFRITSLRVPILKPMDLMVEASPRRIFANAHTYHINSISVNSDHQTYLSADDLRVNLWHLEITDRSFNIVDIKPANMEELTEVITAAEFHPHHCHMFVYSSSKGTIRLCDMRDAALCDRHSKFFEEPEDPSSRSFFSEIISSISDVKFSHSGRYMMTRDYLSVKVWDLNMESRPVETYQVHEYLRSKLCSLYENDCIFDKFECCWNGSDSSIMTGSYNNFFRMFDRNTRRDITLEASRESSKPRATLKPRKVCTGGKRKKDEINVDSLDFNKKILHTAWHPTDNIIAVAATNNLYIFQDKVN
modifications: [^35S]methionine label
